These are yes or no findings as the source states them, for the method shown. Binding seen in cells or lysates may run through a third protein. Some results given as binding are weak or reduced against the parent protein; the word gives no strength.
Target: SEL1L (human (endogenous in HEK293T)) (UniProt Q9UBV2)
Assay: co-IP; immunoprecipitation of SEL1L from lysates of mLepRb-transfected HEK293T (WT and HRD1-/-), Western blot

The chains behind the UniProt entries cited, without tags or fusion partners. Residues count along the entry.
UniProt Q9UBV2, residues 22-794: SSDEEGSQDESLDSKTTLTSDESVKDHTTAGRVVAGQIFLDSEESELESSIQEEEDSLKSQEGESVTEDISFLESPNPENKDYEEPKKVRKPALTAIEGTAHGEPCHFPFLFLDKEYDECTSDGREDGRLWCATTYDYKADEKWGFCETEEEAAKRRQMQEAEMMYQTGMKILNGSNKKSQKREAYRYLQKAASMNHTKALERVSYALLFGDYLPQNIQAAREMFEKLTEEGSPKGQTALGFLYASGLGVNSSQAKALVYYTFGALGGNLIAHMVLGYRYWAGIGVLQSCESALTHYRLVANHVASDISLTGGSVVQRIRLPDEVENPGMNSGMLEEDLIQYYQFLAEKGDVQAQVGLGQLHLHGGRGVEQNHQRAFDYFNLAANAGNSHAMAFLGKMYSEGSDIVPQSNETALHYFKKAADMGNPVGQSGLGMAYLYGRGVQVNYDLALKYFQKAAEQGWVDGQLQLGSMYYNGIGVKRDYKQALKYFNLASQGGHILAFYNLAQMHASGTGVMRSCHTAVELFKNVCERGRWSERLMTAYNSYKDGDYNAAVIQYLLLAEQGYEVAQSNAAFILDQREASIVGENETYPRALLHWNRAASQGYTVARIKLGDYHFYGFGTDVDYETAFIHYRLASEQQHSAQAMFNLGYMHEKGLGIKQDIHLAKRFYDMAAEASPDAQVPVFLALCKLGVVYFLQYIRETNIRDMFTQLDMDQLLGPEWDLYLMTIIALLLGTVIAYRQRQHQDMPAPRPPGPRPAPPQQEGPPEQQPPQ
UniProt P48356, residues 22-1162: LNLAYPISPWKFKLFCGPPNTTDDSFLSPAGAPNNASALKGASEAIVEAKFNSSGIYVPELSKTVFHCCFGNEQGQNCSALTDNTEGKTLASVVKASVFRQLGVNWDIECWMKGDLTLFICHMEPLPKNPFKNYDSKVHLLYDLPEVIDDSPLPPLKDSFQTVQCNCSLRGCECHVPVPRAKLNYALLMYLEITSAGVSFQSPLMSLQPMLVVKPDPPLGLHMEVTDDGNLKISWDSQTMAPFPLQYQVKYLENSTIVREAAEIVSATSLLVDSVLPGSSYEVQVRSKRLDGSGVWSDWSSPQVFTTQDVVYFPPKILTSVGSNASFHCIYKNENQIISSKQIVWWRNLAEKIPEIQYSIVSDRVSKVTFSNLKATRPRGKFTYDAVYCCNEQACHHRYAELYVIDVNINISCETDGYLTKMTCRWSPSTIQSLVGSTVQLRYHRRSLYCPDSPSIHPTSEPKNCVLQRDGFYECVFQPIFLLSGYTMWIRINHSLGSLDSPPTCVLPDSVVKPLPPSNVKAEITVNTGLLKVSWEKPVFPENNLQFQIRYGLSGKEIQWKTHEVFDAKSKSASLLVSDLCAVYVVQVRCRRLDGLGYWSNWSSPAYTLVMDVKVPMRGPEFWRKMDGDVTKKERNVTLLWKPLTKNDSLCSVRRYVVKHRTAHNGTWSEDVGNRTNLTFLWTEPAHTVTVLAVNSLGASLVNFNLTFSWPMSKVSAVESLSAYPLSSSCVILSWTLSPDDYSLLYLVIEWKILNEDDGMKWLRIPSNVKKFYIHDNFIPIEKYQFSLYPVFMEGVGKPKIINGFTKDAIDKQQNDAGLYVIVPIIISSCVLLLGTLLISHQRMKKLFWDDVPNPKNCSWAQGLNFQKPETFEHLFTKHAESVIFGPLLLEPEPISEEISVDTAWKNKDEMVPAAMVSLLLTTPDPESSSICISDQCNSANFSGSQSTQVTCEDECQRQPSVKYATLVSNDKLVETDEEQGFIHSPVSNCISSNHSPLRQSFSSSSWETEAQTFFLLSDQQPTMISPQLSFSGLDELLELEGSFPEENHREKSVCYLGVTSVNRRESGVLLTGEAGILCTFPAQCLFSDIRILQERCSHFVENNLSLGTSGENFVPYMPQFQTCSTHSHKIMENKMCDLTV

binding: binds
Substance: long isoform of mouse leptin receptor (mLepRb), 3xFLAG-tagged (from UniProt P48356 22-1162)
